# Where “and” joins values, the source holds several entries; their conditions need not be identical. Identical values can stand only once. Counter-ions that a name gives are not always drawn. The list shows a part of the results. The data scatter; read single values as rough.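 Optical density at 600 nm measured yeast growth. Because the two-hybrid strains grew without histidine, growth required Pex3–Pex19 binding. Trypanosome selectivity meant a compound inhibited the trypanosome-pair strain's growth by more than 65% but the human-pair strain's by less than 65%.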
# Experiments:
# [1] = system: Saccharomyces cerevisiae HF7c pdr5Δ; experiment: general growth inhibition of yeast HF7c pdr5Δ in -Leu -Trp medium, relative to DMSO; higher = stronger general growth inhibition; settings: 100 µM; 24 h
# [2] = system: human PEX3-PEX19 interaction (yeast two-hybrid); experiment: growth inhibition of yeast two-hybrid strain reporting HsPex3-HsPex19 interaction, relative to DMSO; higher = stronger inhibition of human Pex3-Pex19 interaction / growth; settings: 100 µM; 24 h; 3-aminotriazole 10 mM
# [3] = system: T. brucei Pex3-Pex19 interaction (yeast two-hybrid); experiment: growth inhibition of yeast two-hybrid strain reporting TbPex3-TbPex19 interaction, relative to DMSO; higher = stronger inhibition of T. brucei Pex3-Pex19 interaction / growth; settings: 100 µM; 24 h
SMILES,general growth inhibition [1],growth inhibition [2],growth inhibition [3]
CC(=O)O[C@H]1C[C@@]2(C)[C@@H](C[C@@H](O)[C@H]3[C@@]4(C)CC[C@@H](O)[C@@H](C)[C@@H]4CC[C@@]32C)/C1=C(\CCC=C(C)C)C(=O)O [Fusidic acid sodium],47%,26.8%,29.7%
CC(C)[C@H](N)C(=O)OCC(CO)OCn1cnc2c(=O)[nH]c(N)nc21 (stereo partly drawn) [Valganciclovir hydrochloride hydrate],46.3%,35.7%,54.8%
Cc1ccccc1N1C(=O)c2cc(S(N)(=O)=O)c(Cl)cc2NC1C (stereo not drawn) [Metolazone],35% and 50.4%,36.8% and 45.7%,60.8% and 68%
NCC(O)C1CCCCCCC1 (stereo not drawn) [2-Cyclooctyl-2-hydroxyethylamine hydrochloride],27.9%,36.8%,63.4%
"Nc1c2c(nc3ccccc13)CCCC2 [9-Amino-1,2,3,4-tetrahydroacridine hydrochloride]",46.8%,44%,58.9%
"CC(=O)C(C)=O [2,3-Butanedione]",39.5%,41.4%,65.2%
O=C(O)C1=CCCNC1 [Guvacine hydrochloride],40.8%,36.4%,57.6%
CC(C)(Sc1ccc(CCN(CCCCC2CCCCC2)C(=O)NC2CCCCC2)cc1)C(=O)O,36.9%,25%,48.1%
"CC1(C)C(=O)N(CCN2CCC(C(=O)c3ccc(F)cc3)CC2)c2ccccc21 [LY-310,762 hydrochloride]",52.4%,30.3%,60.5%
N=C(N)c1ccccc1 [Benzamidine hydrochloride],27.3%,45.1%,67.2%
NCCCCNCCCN [Spermidine trihydrochloride],20.4%,19.5%,45.2%
CC(C)NCC(O)c1cc(O)cc(O)c1 (stereo not drawn) [Metaproterenol hemisulfate],46.7%,41.6%,59.6%
"c1ccc(CN2CCC3(CCCc4ccccc43)CC2)cc1 [L-687,384 hydrochloride]",29%,13.6%,55.4%
CNC[C@H](O)c1cccc(O)c1 [Phenylephrine hydrochloride],53.7%,53.1%,69.2%
CN1C(=O)CC[C@H]1c1cccnc1 [(-)-Cotinine],40.8%,45.5%,64.4%
O=C(Nc1ccc2c(c1)CCN(Cc1ncn[nH]1)C2)c1ccccc1-c1ccc(C(F)(F)F)cc1,36.8%,34.9%,68.1%
CCOC(=O)[N-]c1c[n+](N2CCOCC2)no1 [Molsidomine],16.1%,10.2%,36.5%
N#C/C(=C\c1ccc(O)c(O)c1)C(=O)c1ccc(O)c(O)c1 [Tyrphostin AG 538],41.2%,43.3%,53%
CC(N)=NCCCC[C@H](N)C(=O)O [L-N6-(1-Iminoethyl)lysine hydrochloride],42.2%,46.9%,65.2%
COc1cc2nc(N3CCCN(C)CC3)nc(NC3CCN(Cc4ccccc4)CC3)c2cc1OC,41.9%,35.1%,57.2%
"CCCCCCN(CCCCCC)C(=O)Cc1c(-c2ccc(F)cc2)[nH]c2ccccc12 [N,N-Dihexyl-2-(4-fluorophenyl)indole-3-acetamide]",31.2%,26.5%,49%

SMILES,general growth inhibition [1],growth inhibition [2],growth inhibition [3]
Nc1nccc2c1ncn2[C@@H]1O[C@H](CO)[C@@H](O)[C@H]1O [3-deazaadenosine],34%,35.7%,58.1%
CC(=O)[C@H]1CC[C@H]2[C@@H]3CC=C4C[C@@H](OS(=O)(=O)O)CC[C@]4(C)[C@H]3CC[C@]12C [Pregnenolone sulfate sodium],18%,51.4%,71.9%
O=c1c(O)c(-c2cc(O)c(O)c(O)c2)oc2cc(O)cc(O)c12 [Myricetin],42.7%,42.7%,62.1%
O=C(O)CN(CCOCCOCCN(CC(=O)O)CC(=O)O)CC(=O)O,34.1%,32.6%,57.8%
COCC(=O)O[C@]1(CCN(C)CCCc2nc3ccccc3[nH]2)CCc2cc(F)ccc2[C@@H]1C(C)C [Mibefradil dihydrochloride],40.2%,37%,61.1%
NC(N)=Nc1nc(CSCC/C(N)=N/S(N)(=O)=O)cs1 [Famotidine],39.2%,41.5%,60.7%
Cc1ccc(S(=O)(=O)NC(=O)NN2CCCCCC2)cc1 [Tolazamide],14.6%,16%,42.5%
COC(=O)C1=C(C)NC(C)=C(C(=O)OC(C)(C)CN(C)CCC(c2ccccc2)c2ccccc2)C1c1cccc([N+](=O)[O-])c1 (stereo not drawn) [Lercanidipine hydrochloride hemihydrate],23.2%,23.7%,35.5%
O=C(/C=C/c1ccc(O)c(O)c1)OCCc1ccccc1 [Caffeic acid phenethyl ester],89.7%,87%,83.3%
NCC(O)c1ccc(O)c(O)c1 (racemic) [(±)-Norepinephrine (+)bitartrate],50.9%,41.1%,58.9%
Nc1ncnc2c1nc(Br)n2C1OC2COP(=O)(O)O[C@@H]2C1O (stereo partly drawn) [8-Bromo-cAMP sodium],48.9%,41.5%,65.8%
COc1ccc(C2CNC(=O)C2)cc1OC1CCCC1 (stereo not drawn) [Rolipram],51.4%,45%,54.5%
CCCc1nn(C)c2c(=O)[nH]c(-c3cc(S(=O)(=O)N4CCN(C)CC4)ccc3OCC)nc12 [Sildenafil citrate salt],44.4%,41.5%,55.8%
COC(=O)[C@@H]1[C@H]2C[C@H]3c4[nH]c5ccccc5c4CCN3C[C@@H]2CC[C@@H]1O [Yohimbine hydrochloride],40.4%,37.4%,59.5%
COc1cc(Nc2c(C#N)cnc3cc(OCCCN4CCN(C)CC4)c(OC)cc23)c(Cl)cc1Cl [Bosutinib],35.8%,18.2%,50%
O=C(CCCN1CC=C(n2c(=O)[nH]c3ccccc32)CC1)c1ccc(F)cc1 [Droperidol],35.6%,36.1%,64.6%
COc1cc2c(cc1O)CC[C@@H]1[C@@H]2CC[C@]2(C)[C@@H](O)CC[C@@H]12 [2-methoxyestradiol],38%,44.5%,50.1%
C[C@@H](O)[C@H]1C(=O)N2C(C(=O)O)=C(SCCNC=N)C[C@H]12 [Imipenem monohydrate],51.6%,47.2%,56.5%
COC(=O)Nc1nc2cc(C(=O)c3cccs3)ccc2[nH]1 [Nocodazole],47.9%,39.1%,50.9%
C[C@H]1C[C@H]2[C@@H]3CCC4=CC(=O)C=C[C@]4(C)[C@@]3(F)[C@@H](O)C[C@]2(C)[C@@]1(O)C(=O)CO [Betamethasone],38.2%,39%,51%
CCCCCCCCCCCCCCCC(=O)OC(CC(=O)O)C[N+](C)(C)C (racemic) [Palmitoyl-DL-Carnitine chloride],82.6%,78.2%,72.2%

SMILES,general growth inhibition [1],growth inhibition [2],growth inhibition [3]
O=C(O)c1cc2cc(F)ccc2[nH]1 [5-Fluoroindole-2-carboxylic acid],24.1%,21.3%,46.1%
c1ccc2c(CC3=NCCN3)cccc2c1 [Naphazoline hydrochloride],48.5%,45.7%,69.5%
"N[C@H](C(=O)O)[C@H]1C[C@@H]1C(=O)O [(2S,1'S,2'S)-2-(carboxycyclopropyl)glycine]",42.3%,41.8%,65.8%
CC(C)Cc1ccc(C(C)C(=O)O)cc1 (racemic) [(±)-Ibuprofen],65.9%,69.1%,78.6%
C[C@H](O)C(=O)C1=Nc2c(nc(N)[nH]c2=O)NC1 [Sepiapterin],44.1%,52%,58.8%
CN1CCN2c3ccccc3Cc3ccccc3C2C1 (stereo not drawn) [Mianserin hydrochloride],40.8%,37.3%,64.6%
CCN(CC)CCCC(C)Nc1c2ccc(Cl)cc2nc2ccc(OC)cc12 (stereo not drawn) [Quinacrine dihydrochloride],11.3%,0.874%,42.7%
NCCCS(=O)(=O)O [3-Amino-1-propanesulfonic acid sodium],35%,42.6%,59%
CC1CCN(CC[C@H]2CCCN2S(=O)(=O)c2cccc(O)c2)CC1,43%,40.3%,61.2%
"O=C(O)[C@H]1NCCC[C@H]1C(=O)O (racemic) [(±)-cis-Piperidine-2,3-dicarboxylic acid]",25.1%,18.8%,48.5%
C[C@]12CCC(=O)C=C1CC[C@@H]1[C@@H]2[C@@H](O)C[C@@]2(C)[C@H]1CC[C@]2(O)C(=O)CO [Hydrocortisone],40.4%,35.3%,52.7%
N[C@@H](Cc1c[nH]c2ccccc12)C(=O)O [L-Tryptophan],50.4%,45.5%,62.9%
COc1ccccc1N1CCN(CCCCNC(=O)c2ccc3ccccc3c2)CC1,35.1%,24.2%,50.8%
Cc1ccc(Cl)c(Nc2ccccc2C(=O)O)c1Cl [Meclofenamic acid sodium],12.6%,-5.64%,15.1%
C#C[C@]1(O)CC[C@H]2[C@@H]3CCC4=Cc5oncc5C[C@]4(C)[C@H]3CC[C@@]21C [Danazol],26%,26.9%,27.4%
O=C(CCCCCN1CCN(c2ccccc2-c2ccccc2)CC1)NC1CCCc2ccccc21 (stereo not drawn) [LP 12 hydrochloride hydrate],81.8%,78%,76.8%
COC(=O)[C@H]1[C@H]2C[C@H]3c4[nH]c5ccccc5c4CCN3C[C@H]2CC[C@@H]1O [Rauwolscine hydrochloride],51.8%,44.2%,70.2%
O=P(O)(O)C(Cl)(Cl)P(=O)(O)O [Clodronic acid],28.6%,33.5%,58.3%
CC(C)(C)[C@]1(O)CCN2C[C@H]3c4ccccc4CCc4cccc(c43)[C@@H]2C1 [(+)-Butaclamol hydrochloride],23.8%,16.1%,50.5%

# Source: the supplement of paper PMC8326762, “A Small Molecule Inhibitor of Pex3–Pex19 Interaction Disrupts Glycosome Biogenesis and Causes Lethality in Trypanosoma brucei” (Frontiers in Cell and Developmental Biology, 2021)
